Results: US20040175756A1
No constants are given. Whether binding was seen depends on the method and setting. Some entries that bind do so weakly or less than the wild type.

Amino acid sequences for entries named in this document (tags omitted). Residues count along the entry.
UniProt P10747, residues 19-152: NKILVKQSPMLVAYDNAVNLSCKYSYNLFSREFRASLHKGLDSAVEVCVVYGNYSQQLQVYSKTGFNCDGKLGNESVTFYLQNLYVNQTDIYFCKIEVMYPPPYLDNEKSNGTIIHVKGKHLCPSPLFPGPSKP
UniProt P40238, residues 26-491: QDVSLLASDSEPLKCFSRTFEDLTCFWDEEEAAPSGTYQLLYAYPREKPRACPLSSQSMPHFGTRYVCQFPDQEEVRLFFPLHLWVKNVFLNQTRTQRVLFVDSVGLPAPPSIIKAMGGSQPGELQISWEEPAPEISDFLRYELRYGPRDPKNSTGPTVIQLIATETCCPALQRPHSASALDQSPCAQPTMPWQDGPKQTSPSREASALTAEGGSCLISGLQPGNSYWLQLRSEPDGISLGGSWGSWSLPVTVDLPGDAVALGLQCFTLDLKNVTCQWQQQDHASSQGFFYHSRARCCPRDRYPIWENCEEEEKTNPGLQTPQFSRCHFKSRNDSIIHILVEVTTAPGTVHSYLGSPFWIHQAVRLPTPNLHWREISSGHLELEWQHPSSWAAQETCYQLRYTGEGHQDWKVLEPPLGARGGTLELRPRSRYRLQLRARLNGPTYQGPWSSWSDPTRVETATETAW
UniProt P05231, residues 30-212: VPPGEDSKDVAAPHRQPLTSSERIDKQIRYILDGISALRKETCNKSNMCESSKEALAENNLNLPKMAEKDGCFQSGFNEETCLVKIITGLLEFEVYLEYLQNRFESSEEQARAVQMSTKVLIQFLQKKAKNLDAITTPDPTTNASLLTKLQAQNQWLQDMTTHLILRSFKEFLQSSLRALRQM

Legend:
CD28 = CD28 (UniProt P10747); test: phage clone ELISA on coated target protein
recombinant TPO-R = recombinant TPO-R (UniProt P40238); test: phage clones assayed for binding to recombinant TPO-R and TF1 cells
IL6 = IL6 (UniProt P05231); test: phage clone ELISA on coated IL-6 (method as for CD28)

| binding (recombinant TPO-R) | Binder | other results |
| --- | --- | --- |
|  | CD28-A10 (designed binder) CGPGRFQCESGQCVPATWVCDGDDDCADGSDEKSCATTAPTCESNQFQCGSGQCLPGTWRCDGVNDCADSSDETGCGRPGPGATSAPAACGPGRFQCNNGNCVPQTLGCDGDNDCGDSSDEANCSAPASEPPGSL | binding (CD28): binds |
| binds | CPPSEFRCNSGQCIPREWRCDGDNDCADNSDEESCSAPASEPPGSLSLQ (designed binder) [T5 (TPO2)] |  |
| binds | CLPSEFRCSSGHCIPRRWRCDGEPDCQDGSDEANCGTSEHTSLQ (designed binder) [T2 (TPO9)] |  |
|  | IL6#N7 (designed binder) CPPSQFTCRSTNTCIPAPWRCDGDDDCEDDSDEADCGDSHILPFSTPGPSTCLSSQFQCKNGQCIPQTWVCDGDNDCEDDSDETGCGDSHILPFSTPGPST | binding (IL6): binds |
| binds | CQSNEFQCHNYNICLPRPWVCDGVNDCPDGSDEEGCSAPASEPPGSLSLQ (designed binder) [T1 (TPO10)] |  |
